Assay results reported in the supplement of paper PMC6078165.
The reference is the same well before dosing, and untreated signal decays as well.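 Labels refer to human fibroblasts, largely primary: uterine (C12385, HUF), lung (H6013), bone (Hs27A), adrenal (HADF), skin (WS1), plus mammary HMF and breast cancer-associated Hs343T. Cancer lines are basal-like or mesenchymal-like triple-negative breast cancer. The paper counts as hits responses shifting over 3x the replicate standard deviation. The tissue of the other fibroblasts is not given here.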

Test system: Hs578T
Assay: relative JC-1 red fluorescence (viability) vs pre-drug, coculture with fibroblast (fraction); higher = more viable cancer cells
Description: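 JC-1 labelled TNBC cells cocultured 1:1 (1,500 cells each) with CellTrace Violet stained primary or stromal fibroblasts in 384-well plates in FluoroBrite medium, treated with one of 42 anticancer drugs at 0.1, 1, 10 or 100 uM. JC-1 red fluorescence (mitochondrial integrity in cancer cells only) was read by plate reader every 8 h for 72 h. Values are normalised to each well's pre-drug value. The stock of one drug was tenfold lower, so its dose labels may be too high.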

O=NN(CCCl)C(=O)NC1CCCCC1 [Lomustine]
relative JC-1 red fluorescence
Conditions	8 h	16 h	24 h	32 h	40 h	48 h	56 h	64 h	72 h
10 µM	0.883	0.803	0.756	0.715	0.663	0.623	0.6	0.557	0.554
100 µM	0.805	0.709	0.671	0.642	0.5988	0.5643	0.5612	0.531	0.526

relative JC-1 red fluorescence
Conditions	8 h	16 h	24 h	32 h	40 h	48 h	56 h	64 h	72 h
10 µM, coculture fibroblast: C12385	0.798	0.7404	0.725	0.633	0.583	0.553	0.519	0.51	0.507
10 µM, coculture fibroblast: H6013	0.831	0.787	0.756	0.744	0.735	0.732	0.727	0.729	0.71
10 µM, coculture fibroblast: H6019	0.7934	0.711	0.691	0.602	0.57	0.545	0.526	0.513	0.491
10 µM, coculture fibroblast: H6076	0.874	0.783	0.749	0.7309	0.699	0.7035	0.696	0.7	0.705
10 µM, coculture fibroblast: H6231	0.903	0.832	0.765	0.7259	0.652	0.627	0.575	0.557	0.544
10 µM, coculture fibroblast: HADF	0.8375	0.79	0.739	0.701	0.679	0.657	0.631	0.618	0.591
10 µM, coculture fibroblast: HCFa	0.805	0.709	0.656	0.601	0.557	0.547	0.526	0.524	0.512
10 µM, coculture fibroblast: HCPF	0.899	0.834	0.808	0.788	0.736	0.7229	0.703	0.668	0.639
10 µM, coculture fibroblast: HHSteC	0.823	0.752	0.708	0.657	0.625	0.602	0.588	0.572	0.554
10 µM, coculture fibroblast: HMF	0.884	0.812	0.7626	0.72	0.663	0.631	0.598	0.577	0.559
10 µM, coculture fibroblast: HPFa	0.8829	0.813	0.777	0.727	0.708	0.683	0.656	0.636	0.6
10 µM, coculture fibroblast: HUF	0.817	0.72	0.716	0.627	0.572	0.545	0.523	0.527	0.524
10 µM, coculture fibroblast: Hs27A	0.877	0.797	0.757	0.716	0.668	0.665	0.637	0.627	0.578
10 µM, coculture fibroblast: Hs343T	0.9248	0.837	0.783	0.757	0.683	0.664	0.627	0.599	0.59
10 µM, coculture fibroblast: WS1	0.8016	0.693	0.656	0.552	0.497	0.479	0.444	0.437	0.424
100 µM, coculture fibroblast: C12385	0.727	0.641	0.578	0.491	0.436	0.403	0.38	0.364	0.357
100 µM, coculture fibroblast: H6013	0.7394	0.678	0.653	0.634	0.625	0.618	0.607	0.617	0.6
100 µM, coculture fibroblast: H6019	0.702	0.612	0.601	0.507	0.479	0.471	0.46	0.455	0.443
100 µM, coculture fibroblast: H6076	0.745	0.666	0.67979	0.678	0.676	0.701	0.71	0.72	0.738
100 µM, coculture fibroblast: H6231	0.828	0.745	0.699	0.663	0.614	0.593	0.555	0.534	0.531
100 µM, coculture fibroblast: HADF	0.734	0.681	0.675	0.648	0.639	0.626	0.607	0.607	0.582
100 µM, coculture fibroblast: HCFa	0.757	0.72	0.6948	0.6607	0.62	0.608	0.589	0.589	0.569
100 µM, coculture fibroblast: HCPF	0.805	0.726	0.6884	0.6611	0.615	0.596	0.593	0.549	0.534
100 µM, coculture fibroblast: HHSteC	0.7824	0.738	0.709	0.682	0.658	0.635	0.622	0.611	0.594
100 µM, coculture fibroblast: HMF	0.734	0.644	0.636	0.636	0.611	0.601	0.595	0.583	0.573
100 µM, coculture fibroblast: HPFa	0.78158	0.703	0.657	0.606	0.571	0.548	0.515	0.499	0.469
100 µM, coculture fibroblast: HUF	0.752	0.649	0.646	0.562	0.513	0.489	0.464	0.459	0.458
100 µM, coculture fibroblast: Hs27A	0.8515	0.774	0.739	0.705	0.656	0.642	0.601	0.597	0.546
100 µM, coculture fibroblast: Hs343T	0.739	0.613	0.616	0.615	0.571	0.566	0.555	0.541	0.54192
100 µM, coculture fibroblast: WS1	0.723	0.675	0.69	0.599	0.542	0.535	0.506	0.501	0.492
